Assay: general procedure: solution-phase peptide synthesis; isobutyl chloroformate / N-methyl-morpholine (mixed anhydride); 2,4,5-trichlorop
Conditions: late stage modification step, acetate hydrate

Substance | step yield [%]
Amidino-L-tyrosyl-D-methionyl-glycyl-L-phenylalanine amide acetate hydrate | 80
Amidino-L-tyrosyl-D-methionyl-glycyl-L-phenylalanyl-L-proline amide acetate hydrate | 80
Amidino-L-tyrosyl-D-norleucyl-glycyl-L-phenylalanine amide acetate hydrate | 75
Amidino-L-tyrosyl-D-norleucyl-glycyl-L-phenylalanyl-L-proline amide acetate hydrate | 80
